Among the data in publication PMC7819943, “Rice protein-binding microarrays: a tool to detect cis-acting elements near promoter regions in rice” are binding signal values, retold here.

The list shows a part of the results.

For this assay, the target named is T1, OsSMF1 (Oryza sativa, UniProt Q6ZLB0 1-436).
T1 sequence: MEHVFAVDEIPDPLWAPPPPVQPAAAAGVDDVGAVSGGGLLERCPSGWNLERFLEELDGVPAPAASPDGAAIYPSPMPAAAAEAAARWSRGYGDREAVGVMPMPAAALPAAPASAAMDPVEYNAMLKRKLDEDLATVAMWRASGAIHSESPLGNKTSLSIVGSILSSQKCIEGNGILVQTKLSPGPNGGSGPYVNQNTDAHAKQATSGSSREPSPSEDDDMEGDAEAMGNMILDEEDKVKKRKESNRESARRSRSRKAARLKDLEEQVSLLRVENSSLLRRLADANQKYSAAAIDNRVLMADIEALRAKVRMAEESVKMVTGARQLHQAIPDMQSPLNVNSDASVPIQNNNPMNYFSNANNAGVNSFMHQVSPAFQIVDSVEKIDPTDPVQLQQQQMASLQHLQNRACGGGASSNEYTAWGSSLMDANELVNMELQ
Kind of assay: protein-binding microarray (RPBM); PBS, 2% BSA, 51.3 ng/ul salmon testes DNA, 50 uM zinc acetate, 200 nM TF, 25 C, 1 h; high values mean tight binding. Conditions: protein: recombinant; tags: N-terminal polyhistidine and DsRed monomer fusion (pET32a); chain copies: 2; label: CyDye5-dUTP incorporated in the synthesized complementary strand; 3' TTTTT single-stranded linker to array surface; dsDNA, one strand shown. Put shortly:
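Using Ni–NTA, transcription factors fused N-terminally to polyhistidine and DsRed were purified after expression in E. coli BL21-CodonPlus. These were incubated at 200 nM with a blocked, double-stranded custom Agilent array for 1 h at 25 °C in a buffer containing 50 µM zinc acetate, and the array was washed. The binding signal is per-feature fluorescence intensity (arbitrary units) on an Axon 4000B scanner.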
Regarding “AGCTTCATGCATGGTAAGCCGCATGAGGATGGTGTAGTATCGGAGTCACCTAGTGCAG”, the binding signal is 3360 fluorescence intensity (a.u.).

Take “GTCGCCAAGGAATCATCCATGACGTCAGTCGCCGAGCCGTCGGAGTCACCTAGTGCAG”: the binding signal was 17300 fluorescence intensity (a.u.).

Take “GCTAGTATTTTGGTATGTCATCCGTGTATCACAGTAGGTTCGGAGTCACCTAGTGCAG”: the binding signal is 4610 fluorescence intensity (a.u.).

On to “CGCAAGAAACATGACTGTTCTTGTGTAGTCTACTGTAAATCGGAGTCACCTAGTGCAG”, for which the binding signal was 3560 fluorescence intensity (a.u.).

In the case of “ACCCTCCTGGCCTCCTCGGCGCCACCCGTTGCCCGCCGCGCGGAGTCACCTAGTGCAG”, the binding signal was 3160 fluorescence intensity (a.u.).

With “CAACATAGTATCGGATGTGACACATCCTAATACTATAAATCGGAGTCACCTAGTGCAG”, the binding signal is 3170 fluorescence intensity (a.u.).

Regarding “ACTCGTGGAGCCGGTGATGACGTGCCCAAGCTAGAGACAGCGGAGTCACCTAGTGCAG”, the binding signal is 7230 fluorescence intensity (a.u.).

“GCGCTGACGTGTCGCTATCCTACTGGAACACACCACGTCACGGAGTCACCTAGTGCAG”: the binding signal was 46500 fluorescence intensity (a.u.).

In the case of “TAATCTAGTATCAGATATGACACATCCTAGTATTACGAATCGGAGTCACCTAGTGCAG”, the binding signal is 5560 fluorescence intensity (a.u.).

For the sequence “GGGGTGACATAACTGAACAAGTTGGAGGATCTAAACGGGTCGGAGTCACCTAGTGCAG”, the binding signal was 3180 fluorescence intensity (a.u.).

As to “CATCCCCAAACTCCGCCGCCGCCGCCGTCACCGCCGCTCGCGGAGTCACCTAGTGCAG”, the binding signal is 3700 fluorescence intensity (a.u.).

As for “GCGCTAGTCCGTATGAACATGACGTGAACATAATCTCGACCGGAGTCACCTAGTGCAG”, the binding signal is 5120 fluorescence intensity (a.u.).

Regarding “TTTCATGCATGTGTCAATTTATTTGATAACCATAGTCCACCGGAGTCACCTAGTGCAG”, the binding signal is 33200 fluorescence intensity (a.u.).

For “CAGGAGGGGTGGGTTGTTGTTCGGTGGTGTGGACCCGTGCCGGAGTCACCTAGTGCAG”, the binding signal was 4020 fluorescence intensity (a.u.).

On to “GAGGCAGAGGGGTGGCAAACAAAACCCAACGCCATCGCAGCGGAGTCACCTAGTGCAG”, for which the binding signal is 3360 fluorescence intensity (a.u.).

On to “TTATATTATATAAAGTTACTTCTAAGTGTGACACGTAACACGGAGTCACCTAGTGCAG”, for which the binding signal is 6550 fluorescence intensity (a.u.).

As for “TCCAACACCTTCCTTGATCCCATAACATTTGCTTCTTTCTCGGAGTCACCTAGTGCAG”, the binding signal was 25900 fluorescence intensity (a.u.).

As to “AACGAACGTGATGCCTTCTTTTCGAGCTGTTTTAATAATACGGAGTCACCTAGTGCAG”, the binding signal was 15100 fluorescence intensity (a.u.).

As for “CACGGTTCGAGGCGGAGAAGTTTTGCACGTCCCTTCATCCCGGAGTCACCTAGTGCAG”, the binding signal was 3250 fluorescence intensity (a.u.).

“CAGGCTCTGACGTAAGATATATGTAACTCAGGAGAGACATCGGAGTCACCTAGTGCAG”: the binding signal is 6090 fluorescence intensity (a.u.).

For “ACGAGGTCAAAGCTGCCACATCAGAAAACAACCTCCCGAACGGAGTCACCTAGTGCAG”, the binding signal is 4540 fluorescence intensity (a.u.).

Turning to “TGCTATAGTAAACATTTGCTAATGACGTATTAATTAAGCTCGGAGTCACCTAGTGCAG”, the binding signal was 6060 fluorescence intensity (a.u.).

Consider “ATCTAGTAACTATTTGCAATGTTTGCTACTAGATTCTAAGCGGAGTCACCTAGTGCAG”, for which the binding signal was 31400 fluorescence intensity (a.u.).

On to “TCCACCCTTGCCGATGACGGCAACTCTCCCTCCGCTGTCCCGGAGTCACCTAGTGCAG”, for which the binding signal is 4110 fluorescence intensity (a.u.).

With “AAAACACAGGAATGGTCGTTTGATTGGAGCGCAGGAGAAACGGAGTCACCTAGTGCAG”, the binding signal is 64900 fluorescence intensity (a.u.).

As to “GTATAGGGGAGAGGGTGGGCGGGTGATCACTGGGTGGGTGCGGAGTCACCTAGTGCAG”, the binding signal was 5920 fluorescence intensity (a.u.).

Take “ATGGACCTATCACTACTCTATATGTGATCAGCCATCTAAACGGAGTCACCTAGTGCAG”: the binding signal was 22400 fluorescence intensity (a.u.).

“CATCTGACGTCTTTGCTCCACCTGGTTCTTAATGACATTTCGGAGTCACCTAGTGCAG”: the binding signal was 4070 fluorescence intensity (a.u.).

Take “GCAAACACCGGTAGTTCTCTCTGCCTCGCCTATAAATGTGCGGAGTCACCTAGTGCAG”: the binding signal was 3640 fluorescence intensity (a.u.).

Take “ACCGTGCACGGTTGGTCCATGCGATGGCTGCGAGGCACAGCGGAGTCACCTAGTGCAG”: the binding signal is 19000 fluorescence intensity (a.u.).

As to “CATGAACAGGGTGATTAAGTGATTATTATTATTAATTAATCGGAGTCACCTAGTGCAG”, the binding signal is 3380 fluorescence intensity (a.u.).

Turning to “CCGCGCGGAGCATTCTCCCTGTAAACCTACAAATGTTATACGGAGTCACCTAGTGCAG”, the binding signal is 3220 fluorescence intensity (a.u.).

In the case of “GAGGGTCTCGGTGACGGCGGCGACGGAAGCGGGGTCGGGGCGGAGTCACCTAGTGCAG”, the binding signal was 3930 fluorescence intensity (a.u.).

Take “GAGCTTATGACGACTCCAAACCATCGTCAGCTAGTTGCTCCGGAGTCACCTAGTGCAG”: the binding signal was 5280 fluorescence intensity (a.u.).

“GAGAAGGAGGCGGTCCCACGCCATCTGCTCGGATGTCCCCCGGAGTCACCTAGTGCAG”: the binding signal was 3940 fluorescence intensity (a.u.).

For the sequence “TCATCCCCTGATCGTCATCAGCATTCTCACCGTCGGCGCTCGGAGTCACCTAGTGCAG”, the binding signal was 4690 fluorescence intensity (a.u.).

As for “AATCAATTCTAGATGATTCACCTTATTTGGTCGGTGTGATCGGAGTCACCTAGTGCAG”, the binding signal is 3530 fluorescence intensity (a.u.).

On to “CAGCCATCCATCCCACCCACACGTCACCACCCGCGCATCCCGGAGTCACCTAGTGCAG”, for which the binding signal was 20500 fluorescence intensity (a.u.).

Regarding “ATAACCCTCCTGCTTTCTAATCAGTGATGACACACACAAACGGAGTCACCTAGTGCAG”, the binding signal was 4940 fluorescence intensity (a.u.).

Regarding “AAAACAAATAAGCCCATAGTTCTCACTAAAGTGCTGAATTCGGAGTCACCTAGTGCAG”, the binding signal is 3280 fluorescence intensity (a.u.).

“CACTGGCCAACGAGCTTCTGGGTTGTGCCGGGTCGAGGCCCGGAGTCACCTAGTGCAG”: the binding signal is 27000 fluorescence intensity (a.u.).

On to “AGGAAATTAGGCTAGGGTTTTCGCCATGGCTACCACCCACCGGAGTCACCTAGTGCAG”, for which the binding signal is 3300 fluorescence intensity (a.u.).

Turning to “GAAGTCGCCGCTGCCGTCCTTGGCCACCGTCACGTTCGGGCGGAGTCACCTAGTGCAG”, the binding signal is 4270 fluorescence intensity (a.u.).

With “TAATAGGTCCAGTTGTTTATTAAAGTGGCACGTGGCGTTTCGGAGTCACCTAGTGCAG”, the binding signal is 8950 fluorescence intensity (a.u.).

Consider “TGTGCCAAGCAAATGCTCCTCCACGTGAGCGATGATAATGCGGAGTCACCTAGTGCAG”, for which the binding signal was 4700 fluorescence intensity (a.u.).

Take “CACCACACGAAGCAGCCACGAACGCAACGCGGGTGCGTCGCGGAGTCACCTAGTGCAG”: the binding signal is 3140 fluorescence intensity (a.u.).

For “GGACGACGCGTTGACAGAGGAAGGCTTCAGCCACATCATCCGGAGTCACCTAGTGCAG”, the binding signal is 7530 fluorescence intensity (a.u.).

Consider “ATATTAATTTGGTATTGGAGTATACCACTGAGCAATTGCACGGAGTCACCTAGTGCAG”, for which the binding signal was 3220 fluorescence intensity (a.u.).

Consider “CCTTCCACCTAGGATAGTGTCTATGGCATTAACTACATTGCGGAGTCACCTAGTGCAG”, for which the binding signal was 4860 fluorescence intensity (a.u.).

As for “TACACATGATGACATACAAGGACACCATCTGGTCCAAATGCGGAGTCACCTAGTGCAG”, the binding signal was 3600 fluorescence intensity (a.u.).

Take “TCCTTCACCGGTGAAGCGAACAAGGGTGACAGATCCGGAGCGGAGTCACCTAGTGCAG”: the binding signal was 3770 fluorescence intensity (a.u.).

As for “CAGCCCGACGGCAGGAGAAACTACGCCGTCGTGGCAATCGCGGAGTCACCTAGTGCAG”, the binding signal is 3660 fluorescence intensity (a.u.).

Regarding “TTCTCCACATGCACTGTCGTTATCAATGTCAAATATACCTCGGAGTCACCTAGTGCAG”, the binding signal is 3600 fluorescence intensity (a.u.).

In the case of “TTCTACTCAAGTTGGCACACGCCGTTTACACAAACCACACCGGAGTCACCTAGTGCAG”, the binding signal was 3550 fluorescence intensity (a.u.).
